What is called IC50 is the midpoint of a concentration-inhibition curve.

The subject of the assay is S. typhi GFP reporter counter-screen, fluorescence, 4 h. As to the kind of experiment: S. typhi counter-screen signal inhibition – fluorescence, 4 h, counter-screen for PhoP regulon inhibitor project, dose response (AID 2384). In general terms: The purpose of a counterscreen is to sort out artefacts and off-target activity.

Each structure is given as a SMILES string.

With `CNCCCC12CCC(c3ccccc31)c1ccccc12`, the IC50 was 53.5 µM.

The values above are taken from PubChem BioAssay AID2384 (Southern Research Specialized Biocontainment Screening …, 2010).
